Results on four substances are retold here after PMC10945332 (Theranostics, 2024).

[ ]: non-standard residue; d: D form. 1Nal = N[C@@H](Cc1cccc2ccccc12)C(=O)O; NMeNle = CCCC[C@H](NC)C(=O)O; Sar = CNCC(=O)O

The series can be described thus: general procedure: Fmoc solid-phase peptide synthesis; Rink amide resin (0.8 mmol/g; ChemPep); DIC/Oxyma. To be noted: whole synthesis; for final HPLC purity: Analytical HPLC, Kinetex C18 XB 5µm 4.6x150mm, 15-90% MeCN in water containing 0.1% formic acid over 10 min.

On to “H-[dE][dA][dE][dE][dE][dE]AY[Sar]W[NMeNle]D[1Nal]-NH2 (SMILES CCCC[C@@H](C(=O)N[C@@H](CC(=O)O)C(=O)N[C@@H](Cc1cccc2ccccc12)C(N)=O)N(C)C(=O)[C@H](Cc1c[nH]c2ccccc12)NC(=O)CN(C)C(=O)[C@H](Cc1ccc(O)cc1)NC(=O)[C@H](C)NC(=O)[C@@H](CCC(=O)O)NC(=O)[C@@H](CCC(=O)O)NC(=O)[C@@H](CCC(=O)O)NC(=O)[C@@H](CCC(=O)O)NC(=O)[C@@H](C)NC(=O)[C@H](N)CCC(=O)O)”, for which the difficulty met entry was “led to increased product aggregation and lower overall yield post-purification”; the isolated yield was determined as 21.68%; the “final HPLC purity” value is given as above 95%.

Regarding “H-[dE][dE][dA][dE][dE][dE]AY[Sar]W[NMeNle]D[1Nal]-NH2 (SMILES CCCC[C@@H](C(=O)N[C@@H](CC(=O)O)C(=O)N[C@@H](Cc1cccc2ccccc12)C(N)=O)N(C)C(=O)[C@H](Cc1c[nH]c2ccccc12)NC(=O)CN(C)C(=O)[C@H](Cc1ccc(O)cc1)NC(=O)[C@H](C)NC(=O)[C@@H](CCC(=O)O)NC(=O)[C@@H](CCC(=O)O)NC(=O)[C@@H](CCC(=O)O)NC(=O)[C@@H](C)NC(=O)[C@@H](CCC(=O)O)NC(=O)[C@H](N)CCC(=O)O)”, the isolated yield amounted to 37.56% and the “final HPLC purity” value came out at 94%.

“H-[dE][dE][dE][dA][dE][dE]AY[Sar]W[NMeNle]D[1Nal]-NH2 (SMILES CCCC[C@@H](C(=O)N[C@@H](CC(=O)O)C(=O)N[C@@H](Cc1cccc2ccccc12)C(N)=O)N(C)C(=O)[C@H](Cc1c[nH]c2ccccc12)NC(=O)CN(C)C(=O)[C@H](Cc1ccc(O)cc1)NC(=O)[C@H](C)NC(=O)[C@@H](CCC(=O)O)NC(=O)[C@@H](CCC(=O)O)NC(=O)[C@@H](C)NC(=O)[C@@H](CCC(=O)O)NC(=O)[C@@H](CCC(=O)O)NC(=O)[C@H](N)CCC(=O)O)”: the isolated yield is given as 36.64% and the “final HPLC purity” value was above 95%.

For “H-[dE][dE][dE][dE][dE][dA]AY[Sar]W[NMeNle]D[1Nal]-NH2 (SMILES CCCC[C@@H](C(=O)N[C@@H](CC(=O)O)C(=O)N[C@@H](Cc1cccc2ccccc12)C(N)=O)N(C)C(=O)[C@H](Cc1c[nH]c2ccccc12)NC(=O)CN(C)C(=O)[C@H](Cc1ccc(O)cc1)NC(=O)[C@H](C)NC(=O)[C@@H](C)NC(=O)[C@@H](CCC(=O)O)NC(=O)[C@@H](CCC(=O)O)NC(=O)[C@@H](CCC(=O)O)NC(=O)[C@@H](CCC(=O)O)NC(=O)[C@H](N)CCC(=O)O)”, the difficulty met result was “led to increased product aggregation and lower overall yield post-purification”; the isolated yield was determined as 22.32%; the “final HPLC purity” value is above 95%.
